These are yes or no findings as the source states them, for the method shown. Some binding calls cover weakened binding; strength is not graded here.
B1: F027400161 (protein)
chain: DVQLVESGGGVVQPGGSLRLSCAASGRTFSSYRMGWFRQAPGKEREFVAALSGDGYSTYTANSVKGRFTISRDNSKNTVYLQMNSLRPEDTALYYCAAKLQYVSGWSYDYPYWGQGTLVTVSSGGGGSGGGGSGGGGSGGGGSGGGGSGGGGSGGGGSEVQLVESGGGVVQPGGSLRLSCAASGFTFNNYAMKWVRQAPGKGLEWVSSITTGGGSTDYADSVKGRFTISRDNSKNTLYLQMNSLRPEDTALYYCANVPFGYYSEHFSGLSFDYRGQGTLVTVSSGGGGSGGGSEVQLVESGGGVVQPGGSLRLSCAASGSGFGVNILYWYRQAAGIERELIASITSGGITNYVDSVKGRFTISRDNSENTMYLQMNSLRAEDTGLYYCASRNIFDGTTEWGQGTLVTVSSGGGGSGGGSEVQLVESGGGVVQPGGSLRLSCAASGFTFRSFGMSWVRQAPGKGPEWVSSISGSGSDTLYADSVKGRFTISRDNSKNTLYLQMNSLRPEDTALYYCTIGGSLSRSSQGTLVTVSSGGGGSGGGSEVQLVESGGGVVQPGGSLRLSCAASGFTFADYDYDIGWFRQAPGKEREGVSCISNRDGSTYYADSVKGRFTISRDNSKNTVYLQMNSLRPEDTALYYCAVEIHCDDYGVENFDFDPWGQGTLVTVSSA
B2: F010704076 (VHH)
VHH: EVQLVESGGGLVQPGGSLRLSCAASGSGFGVNILYWYRQAAGIERELIASITSGGITNYVDSVKGRFTISRDNSENTMYLQMNSLRAEDTGVYYCASRNIFDGTTEWGQGTLVTVSS

Chains of the proteins cited; added tags and fusions are not shown. Lines headed by an entry give the natural chain unless they say otherwise; changes in a name come on top. A line that says so, or that is headed by a name, gives the form on record, which may keep a tag or linker. Residues count along the entry.
cyno IL-13 (Q0PW92, form named): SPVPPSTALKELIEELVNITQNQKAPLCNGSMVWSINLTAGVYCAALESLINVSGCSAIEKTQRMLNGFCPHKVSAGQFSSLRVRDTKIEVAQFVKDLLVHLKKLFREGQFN
UniProt P23510, residues 51-183: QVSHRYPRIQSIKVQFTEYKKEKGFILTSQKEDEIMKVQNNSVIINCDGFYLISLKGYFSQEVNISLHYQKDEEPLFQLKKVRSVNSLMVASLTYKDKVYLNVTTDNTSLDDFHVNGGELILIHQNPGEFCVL

Experiments:
[1] = molecular target: cyno IL-13 (cynomolgus monkey) (UniProt Q0PW92); assay: Gyrolab in-solution affinity
[2] = molecular target: cyno TSLP (cynomolgus monkey); assay: Gyrolab in-solution affinity
OX40L (human) = OX40L (human) (UniProt P23510); assay: SPR (Biacore T200), F027400161 captured on immobilised hTSLP, hOX40L injected for 2 min at 10 µl/min
[3] = molecular target: cyno TSLP (cynomolgus monkey); assay: SPR

Row | Binder | binding [1] | binding [2] | binding (OX40L (human)) | binding [3]
1 | B1 | binds | binds | no binding (tested: 100 nM) | 
2 | B2 |  |  |  | binds

Source: patent publication US20220177564A1
